Assay results taken from article PMC9050003, “N- and C-terminal regions of the small heat shock protein IbpA from Acholeplasma laidlawii competitively govern its oligomerization pattern and chaperone-like activity†” (RSC Advances, 2020).

Target: T1, AlIbpASEP (Acholeplasma laidlawii) (UniProt A9NFB2)
T1 sequence: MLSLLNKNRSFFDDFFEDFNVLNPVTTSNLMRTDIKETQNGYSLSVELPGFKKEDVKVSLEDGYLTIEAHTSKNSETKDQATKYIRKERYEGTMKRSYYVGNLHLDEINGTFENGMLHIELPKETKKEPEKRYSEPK
Test: SPR; BIAcore T200; His6-AlIbpA proteins immobilised on Ni2+-loaded NTA chip (FC2, about 2000 RU); His6-TnrA20 on FC1 as control, response difference FC2 − FC1; ADH 1.0 mg ml^−1 injected at 10 μl min^−1; 10 mM Na2HPO4, 150 mM NaCl, pH 7.4; KD calculated from the binding curve slopes; both purified

binding: no binding (tested: 1.0 mg ml^−1)
Substance: alcohol dehydrogenase (enzyme)

Results are given in words; binding and its absence hold for the method and conditions named.
